Assay results taken from patent publication US7927581B2, “Peptide-based multimeric targeted contrast agents” (Factor 1A, LLC, priority 2001, dated 2011).
At least one structure is not confirmed: it was looked up by name or label, or the drawing left a doubt. Positions of bridges follow the written chain, without caps; N, C: chain ends. Non-standard residues stand in square brackets, D forms with d. Residues, ends and D or L forms follow the SMILES beside them. His(π-Bn) = N[C@@H](Cc1cncn1Cc1ccccc1)C(=O)O; Tyr(3-Cl) = N[C@@H](Cc1ccc(O)c(Cl)c1)C(=O)O; Tyr(3-I) = N[C@@H](Cc1ccc(O)c(I)c1)C(=O)O; Hyp = O=C(O)[C@@H]1C[C@@H](O)CN1

Amino acid sequences for entries named in this document (tags omitted). Residues count along the entry.
UniProt P02671, 124-216: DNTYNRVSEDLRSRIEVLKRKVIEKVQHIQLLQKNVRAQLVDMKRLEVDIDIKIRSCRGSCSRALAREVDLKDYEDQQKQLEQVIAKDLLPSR
UniProt P02671, 36-97: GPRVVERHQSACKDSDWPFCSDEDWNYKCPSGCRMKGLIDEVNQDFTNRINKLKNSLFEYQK
UniProt P02675, 164-491: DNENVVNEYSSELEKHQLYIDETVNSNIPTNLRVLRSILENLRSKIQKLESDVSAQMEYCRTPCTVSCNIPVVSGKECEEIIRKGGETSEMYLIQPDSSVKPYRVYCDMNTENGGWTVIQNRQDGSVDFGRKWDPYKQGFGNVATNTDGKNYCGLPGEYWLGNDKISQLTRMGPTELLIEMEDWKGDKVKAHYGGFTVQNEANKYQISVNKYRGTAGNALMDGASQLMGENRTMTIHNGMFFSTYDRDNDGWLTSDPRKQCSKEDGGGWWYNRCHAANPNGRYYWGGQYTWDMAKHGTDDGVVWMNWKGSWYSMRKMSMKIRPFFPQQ
UniProt P02675, 45-152: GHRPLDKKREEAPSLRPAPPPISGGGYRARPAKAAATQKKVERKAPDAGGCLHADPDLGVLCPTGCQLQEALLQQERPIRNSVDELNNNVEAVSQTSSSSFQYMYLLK
UniProt P02679, 114-432: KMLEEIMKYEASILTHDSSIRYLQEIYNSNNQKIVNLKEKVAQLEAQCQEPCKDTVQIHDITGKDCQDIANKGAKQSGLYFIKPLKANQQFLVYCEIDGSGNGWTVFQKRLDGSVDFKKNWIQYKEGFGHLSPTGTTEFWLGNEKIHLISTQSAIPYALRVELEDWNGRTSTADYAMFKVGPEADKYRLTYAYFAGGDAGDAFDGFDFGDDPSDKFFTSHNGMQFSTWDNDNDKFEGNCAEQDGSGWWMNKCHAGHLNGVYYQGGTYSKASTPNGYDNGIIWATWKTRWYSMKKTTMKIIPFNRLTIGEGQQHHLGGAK
UniProt P02679, 27-88: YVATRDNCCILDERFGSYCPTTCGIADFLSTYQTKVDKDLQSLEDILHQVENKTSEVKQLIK

Each molecule was assayed against DD(E) fragment of fibrin (Homo sapiens, UniProt P02671+P02675+P02679) (assay: Affinity of cyclized peptides to the DD(E) fragment of fibrin).
Type: binding

`CC[C@H](C)[C@H](NC(=O)[C@H](Cc1c[nH]cn1)NC(=O)[C@@H]1CSSC[C@H](NC(=O)[C@H](Cc2cncn2Cc2ccccc2)NC(=O)[C@@H](N)Cc2ccc(OC)cc2)C(=O)N2C[C@H](O)C[C@H]2C(=O)N[C@@H](Cc2ccc(O)c(Cl)c2)C(=O)N[C@@H](CC(=O)O)C(=O)N[C@@H](CC(C)C)C(=O)N1)C(N)=O` [F(4-OMe) H(Bzl) C Hyp Y(3-Cl) D L C H I] (H-Y(Me)[His(π-Bn)]C[Hyp][Tyr(3-Cl)]DLCHI-NH2; disulfide 3-8; N-terminus and C-terminus assumed) and `CC[C@H](C)[C@H](NC(=O)[C@H](Cc1c[nH]cn1)NC(=O)[C@@H]1CSSC[C@H](NC(=O)[C@H](Cc2cncn2Cc2ccccc2)NC(=O)[C@@H](N)Cc2ccc(OC)cc2)C(=O)N2C[C@H](O)C[C@H]2C(=O)N[C@@H](Cc2ccc(O)c(I)c2)C(=O)N[C@@H](CC(=O)O)C(=O)N[C@@H](CC(C)C)C(=O)N1)C(N)=O` [F(4-OMe) H(Bzl) C Hyp Y(3-I) D L C H I] (H-Y(Me)[His(π-Bn)]C[Hyp][Tyr(3-I)]DLCHI-NH2; disulfide 3-8; N-terminus and C-terminus assumed) cannot be ordered by Kd: at most 0.1 µM for the first, at most 0.1 µM for the second.

`CC[C@H](C)[C@H](NC(=O)[C@H](Cc1c[nH]cn1)NC(=O)[C@@H]1CSSC[C@H](NC(=O)[C@H](Cc2c[nH]cn2)NC(=O)[C@@H](N)Cc2ccc(OC)cc2)C(=O)N2C[C@H](O)C[C@H]2C(=O)N[C@@H](Cc2ccc(O)cc2)C(=O)N[C@@H](CC(=O)O)C(=O)N[C@@H](CC(C)C)C(=O)N1)C(=O)N[C@@H](CC(C)C)C(N)=O` [F(4-OMe) H C Hyp Y D L C H I L] (H-Y(Me)HC[Hyp]YDLCHIL-NH2; disulfide 3-8; N-terminus and C-terminus assumed) and `CC[C@H](C)[C@H](NC(=O)[C@H](Cc1c[nH]cn1)NC(=O)[C@@H]1CSSC[C@H](NC(=O)[C@H](Cc2c[nH]cn2)NC(=O)[C@@H](N)Cc2ccc(OC)cc2)C(=O)N2C[C@H](O)C[C@H]2C(=O)N[C@@H](Cc2ccc(O)c(Cl)c2)C(=O)N[C@@H](CC(=O)O)C(=O)N[C@@H](CC(C)C)C(=O)N1)C(=O)N[C@@H](CC(C)C)C(N)=O` [F(4-OMe) H C Hyp Y(3-Cl) D L C H I L] (H-Y(Me)HC[Hyp][Tyr(3-Cl)]DLCHIL-NH2; disulfide 3-8; N-terminus and C-terminus assumed) cannot be ordered by Kd: at most 0.4 µM for the first, at most 0.1 µM for the second.

`CC[C@H](C)[C@H](NC(=O)[C@H](Cc1c[nH]cn1)NC(=O)[C@@H]1CSSC[C@H](NC(=O)[C@H](Cc2c[nH]cn2)NC(=O)[C@@H](N)Cc2ccc(O)c([N+](=O)[O-])c2)C(=O)N2C[C@H](O)C[C@H]2C(=O)N[C@@H](Cc2ccc(O)c(I)c2)C(=O)N[C@@H](CC(=O)O)C(=O)N[C@@H](CC(C)C)C(=O)N1)C(N)=O` [Y(3-NO2) H C Hyp Y(3-I) D L C H I] (HELM PEPTIDE1{[N[C@@H](Cc1ccc(O)c([N+](=O)[O-])c1)C(=O)[*:2]].H.C.[Hyp].[O=C([C@H](Cc1ccc(O)c(I)c1)N[*:1])[*:2]].D.L.C.H.I.[am]}$PEPTIDE1,PEPTIDE1,3:R3-8:R3$$$V2.0; N-terminus and C-terminus assumed) and `CC[C@H](C)[C@H](NC(=O)[C@H](Cc1c[nH]cn1)NC(=O)[C@@H]1CSSC[C@H](NC(=O)[C@H](Cc2c[nH]cn2)NC(=O)[C@@H](N)Cc2ccc(O)c(I)c2)C(=O)N2C[C@H](O)C[C@H]2C(=O)N[C@@H](Cc2ccc(O)c(I)c2)C(=O)N[C@@H](CC(=O)O)C(=O)N[C@@H](CC(C)C)C(=O)N1)C(N)=O` [Y(3-I) H C Hyp Y(3-I) D L C H I] (HELM PEPTIDE1{[N[C@@H](Cc1ccc(O)c(I)c1)C(=O)[*:2]].H.C.[Hyp].[O=C([C@H](Cc1ccc(O)c(I)c1)N[*:1])[*:2]].D.L.C.H.I.[am]}$PEPTIDE1,PEPTIDE1,3:R3-8:R3$$$V2.0; N-terminus and C-terminus assumed) cannot be ordered by Kd: at most 0.1 µM for the first, at most 0.1 µM for the second.

`CC[C@H](C)[C@H](NC(=O)[C@H](Cc1c[nH]cn1)NC(=O)[C@@H]1CSSC[C@H](NC(=O)[C@H](Cc2c[nH]cn2)NC(=O)[C@@H](N)Cc2ccc(C(F)(F)F)cc2)C(=O)N2C[C@H](O)C[C@H]2C(=O)N[C@@H](Cc2ccc(O)c(I)c2)C(=O)N[C@@H](CC(=O)O)C(=O)N[C@@H](CC(C)C)C(=O)N1)C(N)=O` [F(4-CF3) H C Hyp Y(3-I) D L C H I] (HELM PEPTIDE1{[N[C@@H](Cc1ccc(C(F)(F)F)cc1)C(=O)[*:2]].H.C.[Hyp].[O=C([C@H](Cc1ccc(O)c(I)c1)N[*:1])[*:2]].D.L.C.H.I.[am]}$PEPTIDE1,PEPTIDE1,3:R3-8:R3$$$V2.0; N-terminus and C-terminus assumed) and `CC[C@H](C)[C@H](NC(=O)[C@H](Cc1c[nH]cn1)NC(=O)[C@@H]1CSSC[C@H](NC(=O)[C@H](Cc2c[nH]cn2)NC(=O)[C@@H](N)Cc2cccc(C)c2)C(=O)N2C[C@H](O)C[C@H]2C(=O)N[C@@H](Cc2ccc(O)c(I)c2)C(=O)N[C@@H](CC(=O)O)C(=O)N[C@@H](CC(C)C)C(=O)N1)C(N)=O` [F(3-Me) H C Hyp Y(3-I) D L C H I] (HELM PEPTIDE1{[Cc1cccc(C[C@H](N)C(=O)[*:2])c1].H.C.[Hyp].[O=C([C@H](Cc1ccc(O)c(I)c1)N[*:1])[*:2]].D.L.C.H.I.[am]}$PEPTIDE1,PEPTIDE1,3:R3-8:R3$$$V2.0; N-terminus and C-terminus assumed) cannot be ordered by Kd: at most 0.1 µM for the first, at most 0.1 µM for the second.

`CC[C@H](C)[C@H](NC(=O)[C@H](Cc1c[nH]cn1)NC(=O)[C@@H]1CSSC[C@H](NC(=O)[C@H](Cc2c[nH]cn2)NC(=O)[C@@H](N)Cc2ccccc2)C(=O)N2CCC[C@H]2C(=O)N[C@@H](Cc2ccc(O)cc2)C(=O)N[C@@H](CC(=O)O)C(=O)N[C@@H](CC(C)C)C(=O)N1)C(=O)N[C@@H](CC(C)C)C(N)=O` [F H C P Y D L C H I L] (HELM PEPTIDE1{F.H.C.P.Y.D.L.C.H.I.L.[am]}$PEPTIDE1,PEPTIDE1,3:R3-8:R3$$$V2.0; N-terminus and C-terminus assumed) and `CC[C@H](C)[C@H](NC(=O)[C@H](Cc1c[nH]cn1)NC(=O)[C@@H]1CSSC[C@H](NC(=O)[C@H](Cc2c[nH]cn2)NC(=O)[C@@H](N)Cc2ccccc2OC)C(=O)N2C[C@H](O)C[C@H]2C(=O)N[C@@H](Cc2ccc(O)c(I)c2)C(=O)N[C@@H](CC(=O)O)C(=O)N[C@@H](CC(C)C)C(=O)N1)C(N)=O` [F(2-OMe) H C Hyp Y(3-I) D L C H I] (HELM PEPTIDE1{[COc1ccccc1C[C@H](N)C(=O)[*:2]].H.C.[Hyp].[O=C([C@H](Cc1ccc(O)c(I)c1)N[*:1])[*:2]].D.L.C.H.I.[am]}$PEPTIDE1,PEPTIDE1,3:R3-8:R3$$$V2.0; N-terminus and C-terminus assumed) cannot be ordered by Kd: at most 0.3 µM for the first, at most 0.1 µM for the second.

`CC[C@H](C)[C@H](NC(=O)[C@H](Cc1c[nH]cn1)NC(=O)[C@@H]1CSSC[C@H](NC(=O)[C@H](Cc2c[nH]cn2)NC(=O)[C@@H](N)Cc2cccc(OC)c2)C(=O)N2C[C@H](O)C[C@H]2C(=O)N[C@@H](Cc2ccc(O)c(I)c2)C(=O)N[C@@H](CC(=O)O)C(=O)N[C@@H](CC(C)C)C(=O)N1)C(N)=O` [F(3-OMe) H C Hyp Y(3-I) D L C H I] (HELM PEPTIDE1{[COc1cccc(C[C@H](N)C(=O)[*:2])c1].H.C.[Hyp].[O=C([C@H](Cc1ccc(O)c(I)c1)N[*:1])[*:2]].D.L.C.H.I.[am]}$PEPTIDE1,PEPTIDE1,3:R3-8:R3$$$V2.0; N-terminus and C-terminus assumed) and `COc1cccc(C[C@H](NC(=O)[C@H](Cc2c[nH]cn2)NC(=O)[C@@H]2CSSC[C@H](NC(=O)[C@H](Cc3c[nH]cn3)NC(=O)[C@@H](N)Cc3ccccc3)C(=O)N3C[C@H](O)C[C@H]3C(=O)N[C@@H](Cc3ccc(O)c(I)c3)C(=O)N[C@@H](CC(=O)O)C(=O)N[C@@H](CC(C)C)C(=O)N2)C(N)=O)c1` [F H C Hyp Y(3-I) D L C H F(3-OMe)] (HELM PEPTIDE1{F.H.C.[Hyp].[O=C([C@H](Cc1ccc(O)c(I)c1)N[*:1])[*:2]].D.L.C.H.[COc1cccc(C[C@H](N[*:1])C(=O)[*:2])c1].[am]}$PEPTIDE1,PEPTIDE1,3:R3-8:R3$$$V2.0; N-terminus and C-terminus assumed) cannot be ordered by Kd: at most 0.1 µM for the first, at most 0.1 µM for the second.

`CC[C@H](C)[C@H](NC(=O)[C@H](Cc1c[nH]cn1)NC(=O)[C@@H]1CSSC[C@H](NC(=O)[C@H](Cc2c[nH]cn2)NC(=O)[C@@H](N)Cc2c(C)cc(O)cc2C)C(=O)N2C[C@H](O)C[C@H]2C(=O)N[C@@H](Cc2ccc(O)c(I)c2)C(=O)N[C@@H](CC(=O)O)C(=O)N[C@@H](CC(C)C)C(=O)N1)C(N)=O` [Y(26-Me) H C Hyp Y(3-I) D L C H I] (HELM PEPTIDE1{[Cc1cc(O)cc(C)c1C[C@H](N)C(=O)[*:2]].H.C.[Hyp].[O=C([C@H](Cc1ccc(O)c(I)c1)N[*:1])[*:2]].D.L.C.H.I.[am]}$PEPTIDE1,PEPTIDE1,3:R3-8:R3$$$V2.0; N-terminus and C-terminus assumed) and `CC[C@H](C)[C@H](NC(=O)[C@H](Cc1c[nH]c2ccccc12)NC(=O)[C@@H]1CSSC[C@H](NC(=O)[C@@H](CCC(=O)O)NC(=O)[C@@H](N)Cc2ccc(O)cc2)C(=O)N2C[C@H](O)C[C@H]2C(=O)N[C@@H](Cc2ccc(O)c(Cl)c2)C(=O)NCC(=O)N[C@@H](CC(C)C)C(=O)N1)C(=O)N[C@@H](CCC(N)=O)C(N)=O` [Y D-E C Hyp Y(3-Cl) G L C W I Q] (HELM PEPTIDE1{Y.[dE].C.[Hyp].[O=C([C@H](Cc1ccc(O)c(Cl)c1)N[*:1])[*:2]].G.L.C.W.I.Q.[am]}$PEPTIDE1,PEPTIDE1,3:R3-8:R3$$$V2.0; N-terminus and C-terminus assumed) cannot be ordered by Kd: at most 0.2 µM for the first, at most 0.1 µM for the second.

In the case of `CC[C@H](C)[C@H](NC(=O)[C@H](Cc1c[nH]c2ccccc12)NC(=O)[C@@H]1CSSC[C@H](NC(=O)[C@H](CCC(=O)O)NC(=O)[C@@H](N)Cc2ccc(O)cc2)C(=O)N2C[C@H](O)C[C@H]2C(=O)N[C@@H](Cc2ccc(O)c(Cl)c2)C(=O)NCC(=O)N[C@@H](CC(C)C)C(=O)N1)C(=O)N[C@@H](CCC(N)=O)C(N)=O` [Y E C Hyp Y(3-Cl) G L C W I Q] (HELM PEPTIDE1{Y.E.C.[Hyp].[O=C([C@H](Cc1ccc(O)c(Cl)c1)N[*:1])[*:2]].G.L.C.W.I.Q.[am]}$PEPTIDE1,PEPTIDE1,3:R3-8:R3$$$V2.0; N-terminus and C-terminus assumed), the Kd is reported as at most 0.3 µM.
